Results are given in words; binding and its absence hold for the method and conditions named. Some results given as binding are weak or reduced against the parent protein; the word gives no strength.
Experiments:
[1] = biological target: LPAR1 (on CHO cells; species not stated) (UniProt Q92633); assay: hybridoma isolation; assay not restated (Example 1.2 describes FACS on CHO cells expressing LPAR1)
[2] = biological target: LPAR1 (on CHO cells; species not stated) (UniProt Q92633); assay: hybridoma supernatant, FACS on CHO cells transiently expressing LPAR1 against CHO cells with an irrelevant GPCR (Example 1.2)

Sequences of proteins named here, by UniProt entry; tags and fusion partners are left off.
UniProt Q92633: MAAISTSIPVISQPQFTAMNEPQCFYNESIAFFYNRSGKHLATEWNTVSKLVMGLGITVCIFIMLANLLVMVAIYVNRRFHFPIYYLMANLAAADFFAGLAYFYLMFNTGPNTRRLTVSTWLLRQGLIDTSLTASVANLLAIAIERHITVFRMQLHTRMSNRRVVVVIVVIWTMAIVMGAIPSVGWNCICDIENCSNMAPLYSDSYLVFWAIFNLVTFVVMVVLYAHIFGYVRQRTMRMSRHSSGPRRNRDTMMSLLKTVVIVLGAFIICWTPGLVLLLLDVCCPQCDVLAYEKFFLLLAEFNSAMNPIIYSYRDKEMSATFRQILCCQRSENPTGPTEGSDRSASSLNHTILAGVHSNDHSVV

B1: 63D8 (antibody, IgG1, V domains shown)
VH: EVKLLESGGGLVQPGGSLKLSCTASGFDFSRYWMSWVRQAPGKGLEWIGEINPSRSAINYSPSLKDKFIISRDNAKNTLYLQMSKVRSEDTALYYCARQGQRLRYGMDYWGQGTSVTVSS
VL: DIVMTQSPNFMSTSVGDRVSVTCRASQDVRTAVAWYQQKPGRSPKLLIYWTSTRHTGVPDRFTGSGSGTDYTLTISSVQAADLALYYCQQHYGTPLTFGAGTNLELK
notes: First found as a mouse hybridoma antibody
binding [1]: binds

B2: Antibody 1 (antibody, IgG1, V domains shown)
VH: QVQLQQSGAELARPGASVKLSCKASGYTFTSSGISWVKQRTGQGLEWIGEILPRSGYTNYNEKFKGKASLTADKSSSTAYMELRSLTSEDSAVYFCARDFGSSRYAMDYWSQGTSVTVSS
VL: SIVMTQTPKLLPVSAGDRVTMTCKASQSVRYNVAWYQQKPGQSPKLLIYYASNRYTGVPDRFTGSGSGTDFTFTVRSVQVEDLAVYFCQQHYNSPLTFGSGTKLELR
binding [2]: binds

Reference: patent US20230181671A1 (published 2023)
